Laboratory results published in the supplement of paper PMC10849652.
This is one part of the list.

Amino acid sequences for entries named in this document (tags omitted). A change or cut given only in a name is not applied to a line headed by its entry.
UniProt Q969N2: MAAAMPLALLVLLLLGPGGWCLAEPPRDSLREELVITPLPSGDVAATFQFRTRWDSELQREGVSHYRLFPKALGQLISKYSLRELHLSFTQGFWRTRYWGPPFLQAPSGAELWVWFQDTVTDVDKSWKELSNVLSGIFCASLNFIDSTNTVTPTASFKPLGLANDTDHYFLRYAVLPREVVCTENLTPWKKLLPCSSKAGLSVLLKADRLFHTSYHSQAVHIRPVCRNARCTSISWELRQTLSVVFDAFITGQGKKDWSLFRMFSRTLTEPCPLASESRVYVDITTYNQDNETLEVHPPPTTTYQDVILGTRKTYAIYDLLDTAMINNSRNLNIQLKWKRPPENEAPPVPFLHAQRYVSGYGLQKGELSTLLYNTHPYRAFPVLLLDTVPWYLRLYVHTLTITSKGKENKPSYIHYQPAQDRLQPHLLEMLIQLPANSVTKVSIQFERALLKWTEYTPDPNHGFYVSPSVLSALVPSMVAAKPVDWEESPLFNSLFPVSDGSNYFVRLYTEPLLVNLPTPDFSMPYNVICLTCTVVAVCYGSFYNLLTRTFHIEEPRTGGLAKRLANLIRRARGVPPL
UniProt O00264: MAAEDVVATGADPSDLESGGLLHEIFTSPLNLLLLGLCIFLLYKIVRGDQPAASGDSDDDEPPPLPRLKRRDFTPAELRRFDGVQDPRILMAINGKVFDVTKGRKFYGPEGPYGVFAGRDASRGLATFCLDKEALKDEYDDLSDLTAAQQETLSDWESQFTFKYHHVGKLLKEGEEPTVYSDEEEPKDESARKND
UniProt Q4KWH8: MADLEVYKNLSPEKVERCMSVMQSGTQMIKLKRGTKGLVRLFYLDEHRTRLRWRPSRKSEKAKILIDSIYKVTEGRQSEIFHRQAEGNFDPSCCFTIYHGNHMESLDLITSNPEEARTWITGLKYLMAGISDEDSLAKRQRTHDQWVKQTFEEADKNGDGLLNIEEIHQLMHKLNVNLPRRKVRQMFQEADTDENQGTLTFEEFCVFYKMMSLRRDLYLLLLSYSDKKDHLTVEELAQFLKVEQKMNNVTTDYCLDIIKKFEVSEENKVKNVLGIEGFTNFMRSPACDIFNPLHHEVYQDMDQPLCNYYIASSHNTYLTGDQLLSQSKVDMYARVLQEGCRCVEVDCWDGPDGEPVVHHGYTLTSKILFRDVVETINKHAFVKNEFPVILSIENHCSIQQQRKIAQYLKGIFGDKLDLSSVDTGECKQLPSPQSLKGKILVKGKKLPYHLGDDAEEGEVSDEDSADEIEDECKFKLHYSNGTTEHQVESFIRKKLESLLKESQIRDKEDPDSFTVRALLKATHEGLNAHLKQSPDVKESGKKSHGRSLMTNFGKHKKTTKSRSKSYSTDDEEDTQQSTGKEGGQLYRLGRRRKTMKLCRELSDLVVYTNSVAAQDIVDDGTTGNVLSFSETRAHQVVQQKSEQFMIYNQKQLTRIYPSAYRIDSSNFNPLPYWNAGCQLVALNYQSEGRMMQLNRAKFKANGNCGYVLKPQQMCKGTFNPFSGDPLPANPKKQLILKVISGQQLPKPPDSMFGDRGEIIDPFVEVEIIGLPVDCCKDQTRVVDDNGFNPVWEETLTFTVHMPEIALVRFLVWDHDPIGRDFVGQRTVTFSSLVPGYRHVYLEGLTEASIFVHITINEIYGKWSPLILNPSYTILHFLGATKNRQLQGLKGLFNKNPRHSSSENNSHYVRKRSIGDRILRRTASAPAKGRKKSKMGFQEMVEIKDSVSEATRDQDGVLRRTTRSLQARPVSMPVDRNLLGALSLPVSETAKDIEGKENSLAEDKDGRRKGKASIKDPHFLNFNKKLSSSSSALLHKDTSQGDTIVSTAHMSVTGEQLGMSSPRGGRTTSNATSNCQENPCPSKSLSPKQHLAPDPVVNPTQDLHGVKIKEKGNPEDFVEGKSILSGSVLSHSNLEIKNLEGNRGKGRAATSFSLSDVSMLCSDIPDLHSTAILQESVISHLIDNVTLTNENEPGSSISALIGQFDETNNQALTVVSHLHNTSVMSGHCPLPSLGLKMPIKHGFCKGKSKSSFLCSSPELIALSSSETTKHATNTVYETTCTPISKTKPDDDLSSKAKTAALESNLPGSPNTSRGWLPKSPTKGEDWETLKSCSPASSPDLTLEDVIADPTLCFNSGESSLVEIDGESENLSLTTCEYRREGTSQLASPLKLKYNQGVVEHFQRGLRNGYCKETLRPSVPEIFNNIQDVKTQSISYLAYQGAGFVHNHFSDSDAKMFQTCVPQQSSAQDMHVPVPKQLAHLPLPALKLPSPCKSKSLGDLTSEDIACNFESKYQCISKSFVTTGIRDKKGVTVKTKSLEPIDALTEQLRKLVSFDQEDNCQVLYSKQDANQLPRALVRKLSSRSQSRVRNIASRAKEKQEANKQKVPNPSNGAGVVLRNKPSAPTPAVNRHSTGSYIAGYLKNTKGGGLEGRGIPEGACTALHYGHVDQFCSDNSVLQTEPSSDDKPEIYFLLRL
UniProt Q9UBF8: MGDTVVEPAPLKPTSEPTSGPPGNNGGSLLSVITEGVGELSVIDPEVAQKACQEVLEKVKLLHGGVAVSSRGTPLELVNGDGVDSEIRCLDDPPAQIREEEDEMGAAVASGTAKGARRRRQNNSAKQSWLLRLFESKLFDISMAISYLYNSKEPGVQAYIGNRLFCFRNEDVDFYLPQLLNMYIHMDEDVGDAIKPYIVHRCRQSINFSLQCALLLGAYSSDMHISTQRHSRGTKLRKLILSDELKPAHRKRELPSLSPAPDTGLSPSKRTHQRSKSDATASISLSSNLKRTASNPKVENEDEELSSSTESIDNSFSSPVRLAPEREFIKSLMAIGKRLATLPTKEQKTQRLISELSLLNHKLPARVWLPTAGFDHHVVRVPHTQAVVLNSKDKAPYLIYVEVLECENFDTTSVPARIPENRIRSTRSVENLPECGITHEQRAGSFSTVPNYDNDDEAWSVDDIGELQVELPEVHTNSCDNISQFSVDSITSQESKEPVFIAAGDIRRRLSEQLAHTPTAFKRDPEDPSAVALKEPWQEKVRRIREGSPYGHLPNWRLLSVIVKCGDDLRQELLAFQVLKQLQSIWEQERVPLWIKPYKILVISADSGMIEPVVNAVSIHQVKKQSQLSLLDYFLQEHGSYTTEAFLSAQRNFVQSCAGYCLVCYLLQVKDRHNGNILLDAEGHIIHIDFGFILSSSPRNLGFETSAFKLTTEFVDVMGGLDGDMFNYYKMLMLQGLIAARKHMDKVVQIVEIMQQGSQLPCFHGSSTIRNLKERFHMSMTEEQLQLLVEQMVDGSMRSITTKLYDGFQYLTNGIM
UniProt P28328: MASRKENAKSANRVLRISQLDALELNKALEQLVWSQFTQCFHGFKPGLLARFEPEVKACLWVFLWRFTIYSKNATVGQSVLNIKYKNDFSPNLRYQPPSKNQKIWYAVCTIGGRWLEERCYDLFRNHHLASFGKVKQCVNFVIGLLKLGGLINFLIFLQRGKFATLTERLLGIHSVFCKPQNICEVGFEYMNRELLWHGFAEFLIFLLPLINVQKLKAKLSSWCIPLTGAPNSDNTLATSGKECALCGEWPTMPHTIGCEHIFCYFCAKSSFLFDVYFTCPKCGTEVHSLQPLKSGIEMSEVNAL
UniProt Q8TBF5: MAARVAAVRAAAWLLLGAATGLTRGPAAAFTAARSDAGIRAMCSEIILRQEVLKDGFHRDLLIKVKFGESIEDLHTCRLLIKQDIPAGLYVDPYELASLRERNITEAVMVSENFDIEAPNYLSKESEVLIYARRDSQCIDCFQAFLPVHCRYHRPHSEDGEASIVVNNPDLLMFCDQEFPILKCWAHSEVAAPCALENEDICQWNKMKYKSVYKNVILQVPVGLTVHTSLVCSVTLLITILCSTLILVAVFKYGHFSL
UniProt P42336, whole entry, looked up: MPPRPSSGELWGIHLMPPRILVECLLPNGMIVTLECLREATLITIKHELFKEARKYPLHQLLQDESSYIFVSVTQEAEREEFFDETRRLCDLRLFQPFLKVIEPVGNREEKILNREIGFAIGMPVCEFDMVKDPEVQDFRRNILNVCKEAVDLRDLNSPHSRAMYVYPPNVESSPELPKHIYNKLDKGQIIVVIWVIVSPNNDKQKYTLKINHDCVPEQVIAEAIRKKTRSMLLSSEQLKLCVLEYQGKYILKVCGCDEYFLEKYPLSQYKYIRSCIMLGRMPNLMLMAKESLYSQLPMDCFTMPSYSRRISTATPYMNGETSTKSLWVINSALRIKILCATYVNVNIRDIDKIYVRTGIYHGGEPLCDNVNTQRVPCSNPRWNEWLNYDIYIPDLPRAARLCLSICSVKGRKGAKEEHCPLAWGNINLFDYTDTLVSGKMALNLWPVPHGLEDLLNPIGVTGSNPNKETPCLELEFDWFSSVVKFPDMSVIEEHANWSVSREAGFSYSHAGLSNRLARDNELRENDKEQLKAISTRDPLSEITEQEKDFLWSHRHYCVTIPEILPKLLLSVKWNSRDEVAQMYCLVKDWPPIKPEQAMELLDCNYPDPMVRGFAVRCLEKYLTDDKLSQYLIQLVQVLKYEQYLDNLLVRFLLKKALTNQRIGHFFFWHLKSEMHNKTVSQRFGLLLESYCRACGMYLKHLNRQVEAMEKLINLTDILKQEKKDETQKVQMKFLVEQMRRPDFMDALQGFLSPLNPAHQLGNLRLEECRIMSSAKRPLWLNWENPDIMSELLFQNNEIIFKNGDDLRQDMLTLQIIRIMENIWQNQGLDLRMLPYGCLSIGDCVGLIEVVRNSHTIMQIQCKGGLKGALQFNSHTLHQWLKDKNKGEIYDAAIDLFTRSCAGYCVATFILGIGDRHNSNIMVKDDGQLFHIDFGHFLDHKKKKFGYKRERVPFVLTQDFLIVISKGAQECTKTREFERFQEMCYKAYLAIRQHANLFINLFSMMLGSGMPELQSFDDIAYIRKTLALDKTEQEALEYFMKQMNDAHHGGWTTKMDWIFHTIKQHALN
UniProt Q96BK5: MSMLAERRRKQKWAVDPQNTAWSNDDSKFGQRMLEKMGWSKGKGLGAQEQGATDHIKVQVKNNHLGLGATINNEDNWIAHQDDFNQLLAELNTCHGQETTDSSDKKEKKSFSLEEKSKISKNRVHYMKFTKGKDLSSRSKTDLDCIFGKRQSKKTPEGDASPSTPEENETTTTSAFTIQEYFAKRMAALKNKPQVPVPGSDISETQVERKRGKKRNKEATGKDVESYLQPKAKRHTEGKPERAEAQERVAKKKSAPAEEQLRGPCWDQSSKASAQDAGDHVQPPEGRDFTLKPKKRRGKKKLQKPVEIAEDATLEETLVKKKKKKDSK
UniProt P40855: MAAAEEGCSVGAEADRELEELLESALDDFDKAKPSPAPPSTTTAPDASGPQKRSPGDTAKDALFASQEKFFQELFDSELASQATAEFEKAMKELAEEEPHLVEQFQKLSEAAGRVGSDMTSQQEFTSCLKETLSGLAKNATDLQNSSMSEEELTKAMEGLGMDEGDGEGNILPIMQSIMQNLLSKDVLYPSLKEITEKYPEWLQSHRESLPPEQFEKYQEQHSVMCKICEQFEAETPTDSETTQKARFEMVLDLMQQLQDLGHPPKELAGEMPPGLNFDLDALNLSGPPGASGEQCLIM
UniProt O95427: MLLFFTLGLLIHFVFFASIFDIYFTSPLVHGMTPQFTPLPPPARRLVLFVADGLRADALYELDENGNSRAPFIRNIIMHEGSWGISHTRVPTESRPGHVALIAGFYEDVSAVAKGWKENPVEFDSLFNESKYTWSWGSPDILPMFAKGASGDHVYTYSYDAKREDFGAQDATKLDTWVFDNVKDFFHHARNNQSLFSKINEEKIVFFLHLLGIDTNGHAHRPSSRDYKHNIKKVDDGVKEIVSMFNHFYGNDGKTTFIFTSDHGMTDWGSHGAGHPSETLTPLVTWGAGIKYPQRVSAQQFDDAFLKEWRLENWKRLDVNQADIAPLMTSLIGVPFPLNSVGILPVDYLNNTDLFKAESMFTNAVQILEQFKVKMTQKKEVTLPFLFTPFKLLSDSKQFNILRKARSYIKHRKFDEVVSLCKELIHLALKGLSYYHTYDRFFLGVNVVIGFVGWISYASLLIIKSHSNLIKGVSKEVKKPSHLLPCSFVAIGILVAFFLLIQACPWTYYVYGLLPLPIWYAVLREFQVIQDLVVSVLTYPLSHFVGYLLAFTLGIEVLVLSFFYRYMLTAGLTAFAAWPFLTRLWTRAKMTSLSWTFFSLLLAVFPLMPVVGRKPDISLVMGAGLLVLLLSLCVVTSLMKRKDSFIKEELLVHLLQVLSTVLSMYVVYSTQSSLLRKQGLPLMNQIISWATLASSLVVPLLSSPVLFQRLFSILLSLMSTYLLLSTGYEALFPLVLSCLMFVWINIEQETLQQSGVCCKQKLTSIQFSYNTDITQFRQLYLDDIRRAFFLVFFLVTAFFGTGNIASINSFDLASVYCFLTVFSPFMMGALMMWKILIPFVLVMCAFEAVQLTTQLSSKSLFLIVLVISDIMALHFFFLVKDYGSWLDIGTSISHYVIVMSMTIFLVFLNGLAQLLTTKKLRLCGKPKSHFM

Legend:
Assay in all cases: log2 fold change, soluble protein after heating vs DMSO (PISA); higher = thermal stabilisation; K562 cells, 10 uM, 30 min; active = over 0.2 and 3.5 SD of the protein, either way, in both replicates (recomputed)
[1] = compound: NC(=O)Nc1cc(-c2cccc(F)c2)sc1C(=O)N[C@H]1CCCNC1
How it was run: (§1)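 K562 cells at 2×10^6 cells/mL were treated with 10 μM compound for 30 min. Aliquots were heated for 3 min across 48°C-58°C, pooled, and extracted in PBS with 0.5% NP-40 at 4°C; soluble protein was the supernatant after 21,000xg for 90 min. Soluble protein was quantified by TMTpro 16plex LC-MS/MS with channel sums equalised, and reported as log2 fold change in thermal stability against DMSO controls, with values from duplicates.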

[2] = compound: NC(=O)c1cnc(N[C@@H]2CCCC[C@@H]2N)nc1Nc1cccc(-n2nccn2)c1
How it was run: as §1

[3] = compound: NC1(c2ccc(-c3nc4ccn5c(=O)[nH]nc5c4cc3-c3ccccc3)cc2)CCC1
How it was run: as §1

[4] = compound: NCC(=O)Nc1ccc(-n2nc(C(F)(F)F)cc2-c2ccc3c(ccc4ccccc43)c2)cc1
How it was run: as §1

entinostat = compound: Nc1ccccc1NC(=O)c1ccc(CNC(=O)OCc2cccnc2)cc1 [entinostat]
How it was run: as §1

vorinostat = compound: O=C(CCCCCCC(=O)Nc1ccccc1)NO [vorinostat]
How it was run: as §1

citarinostat = compound: O=C(CCCCCCNC(=O)c1cnc(N(c2ccccc2)c2ccccc2Cl)nc1)NO [citarinostat]
How it was run: as §1

silmitasertib = compound: O=C(O)c1ccc2c(c1)nc(Nc1cccc(Cl)c1)c1ccncc12 [silmitasertib]
How it was run: as §1

[5] = compound: O=C1NC(=O)C(c2cnc3ccccn23)=C1c1cn2c3c(cc(F)cc13)CN(C(=O)N1CCCCC1)CC2
How it was run: as §1

[6] = compound: c1cc(OCCN2CCCCC2)cc(-c2n[nH]c3ccc(-c4nnc[nH]4)cc23)c1
How it was run: as §1

Measured: log2 fold change

PIGT (UniProt Q969N2)
inactive: [1] -0.01 | [2] -0.002 | [3] -0.077 | [4] -0.002 | entinostat 0.018 | vorinostat 0.05 | citarinostat 0.04 | silmitasertib 0 | [5] -0.01 | [6] -0.089

PGRMC1 (UniProt O00264)
inactive: [1] 0.002 | [2] 0 | [3] 0.068 | [4] 0.085 | entinostat 0.027 | vorinostat -0.053 | citarinostat -0.046 | silmitasertib -0.01 | [5] -0.029 | [6] -0.018

PEX6 (UniProt Q13608)
inactive: [1] -0.01 | [2] -0.025 | [3] -0.025 | [4] 0.044 | entinostat 0.01 | vorinostat 0.033 | citarinostat 0 | silmitasertib 0.006 | [5] -0.062 | [6] -0.04

PLCH1 (UniProt Q4KWH8)
inactive: [1] -0.069 | [2] -0.053 | [3] -0.191 | [4] -0.088 | entinostat -0.059 | vorinostat -0.095 | citarinostat 0.074 | silmitasertib 0.04 | [5] -0.061 | [6] -0.009

PEX3 (UniProt P56589)
inactive: [1] 0.025 | [2] 0.104 | [3] -0.094 | [4] 0.082 | entinostat -0.229 | citarinostat 0.033 | silmitasertib -0.025 | [5] 0.115 | [6] -0.114

PI4KB (UniProt Q9UBF8)
inactive: [1] -0.025 | [2] -0.042 | [3] -0.137 | [4] -0.068 | entinostat 0.044 | vorinostat 0.037 | citarinostat 0.004 | silmitasertib -0.058 | [5] -0.037 | [6] -0.062

PEX2 (UniProt P28328)
inactive: [1] 0.032 | [2] 0.019 | [3] -0.17 | [4] -0.051 | entinostat -0.079 | vorinostat 0.03 | citarinostat 0.156 | silmitasertib 0.156 | [5] -0.016 | [6] -0.034

PHF3 (UniProt Q92576)
inactive: [1] 0.107 | [2] 0.124 | [3] 0.106 | [4] 0.033 | entinostat 0.014 | vorinostat 0.042 | citarinostat -0.06 | silmitasertib 0.117 | [5] -0.001 | [6] -0.202

PIGU (UniProt Q9H490)
inactive: [1] 0.022 | [2] 0.061 | [3] -0.164 | [4] 0.027 | entinostat -0.019 | vorinostat 0.141 | citarinostat 0.01 | silmitasertib -0.007 | [5] 0.026 | [6] 0.059

PIGX isoform 2 (UniProt Q8TBF5)
inactive: [1] 0.06 | [3] 0.1 | [4] 0.045 | entinostat 0.127 | vorinostat -0.05 | citarinostat 0.009 | silmitasertib 0.051 | [5] 0.092 | [6] 0.052

PIK3CA (UniProt P42336)
inactive: [1] 0.109 | [2] -0.031 | [3] 0 | entinostat 0.05 | silmitasertib 0.053 | [5] 0.102

PINX1 (UniProt Q96BK5)
inactive: [1] 0.016 | [2] 0.185 | [3] 0.385 | [4] 0.246 | entinostat 0.046 | vorinostat -0.151 | silmitasertib 0.384 | [5] 0.021

PEX19 (UniProt P40855)
inactive: [1] 0.043 | [2] 0.038 | [3] 0.058 | [4] 0.026 | entinostat -0.015 | vorinostat 0.004 | citarinostat -0.025 | silmitasertib -0.005 | [5] -0.009 | [6] 0.051

PJA2 (UniProt O43164)
inactive: [1] -0.006 | [2] -0.047 | [3] -0.049 | [4] 0.029 | entinostat 0.004 | vorinostat -0.001 | citarinostat -0.005 | silmitasertib 0.026 | [5] -0.059 | [6] -0.075

PIGN (UniProt O95427)
inactive: [1] 0.074 | [2] -0.053 | [3] -0.012 | entinostat 0.003 | vorinostat 0.004 | citarinostat 0.124 | silmitasertib -0.014 | [5] -0.072 | [6] -0.322
